Test results published in article PMC4378997.
These are yes or no findings as the source states them, for the method shown. In cells and extracts the contact can be indirect. A result given as binding can be weak or reduced; the word gives no strength. Tags and fused reporters may be left off the sequences shown.

Biological target: T1, Pds1-GFP (S. cerevisiae) (UniProt P40316)
T1 sequence: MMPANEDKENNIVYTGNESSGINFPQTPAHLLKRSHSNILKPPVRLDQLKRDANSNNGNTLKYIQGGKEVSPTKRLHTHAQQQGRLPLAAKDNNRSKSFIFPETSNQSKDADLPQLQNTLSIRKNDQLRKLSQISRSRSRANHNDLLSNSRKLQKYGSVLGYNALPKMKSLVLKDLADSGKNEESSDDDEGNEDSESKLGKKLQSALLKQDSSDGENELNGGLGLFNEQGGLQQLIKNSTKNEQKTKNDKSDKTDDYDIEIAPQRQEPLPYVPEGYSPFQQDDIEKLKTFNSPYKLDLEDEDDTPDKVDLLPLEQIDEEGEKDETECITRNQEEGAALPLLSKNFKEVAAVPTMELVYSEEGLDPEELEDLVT
Test: co-IP; GFP-Trap_A beads on 5mg yeast whole cell lysate, 4°C 1.5 h, washes with 400mM NaCl and 0.5% Triton; pGAL1-Ty1-H3 induced 24 h with galactose; blots with anti-GFP and anti-IN (8B11); logarithmic cells, also cells arrested with alpha-factor or nocodazole, and cells depleted of Pds1 (TetO7-PDS1, doxycycline 1 h) or Smc1 (TetO7-SMC1, doxycycline 6 h)

Ty1 integrase expressed from pGAL1-Ty1-H3 (S. cerevisiae) (enzyme)
binding: binds weakly
